# Where “and” joins values, the source holds several entries; their conditions need not be identical. Identical values can stand only once. The campaign covered roughly 330,000 compounds. About 7,700 (2.3%) were called active. This list was built around the results that the source calls inconclusive (neither active nor inactive); the mix of calls is not that of the screen. The call rests on the fitted dose curve; in most records, active means well fitted inhibition curve with a large enough effect; inconclusive means small, poorly fitted or top-dose-only effect, or effect the other way; inactive means flat fitted curve, though single readings scatter. A potency beside an inconclusive call is a rough fit, not a confirmed value.
# Assay: qHTS screen for small molecules that inhibit ELG1-dependent DNA repair in human embryonic kidney (HEK293T) cells expressing luciferase-tagged ELG1; further: nearly all actives have a fitted effect of over 55% in size
# Settings: HEK293T ELG1-luciferase reporter, luminescence, 16 h, DNA damage induced by 5-fluorouridine; series mostly up to 46.1 µM
# Summary of the method: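 DMSO vehicle served as the neutral condition. Each well held 2,000 cells given 5-fluorouridine plus compound; after 16 hr at 37 °C/5% CO2, ONE-Glo was added and luciferase measured 30 min later.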
# Potency means the concentration at half of the fitted maximal effect.
row,Structure (SMILES),Potency
1,CC(=O)Oc1ccc2c(=O)c(-c3nc4ccccc4s3)coc2c1,"inconclusive: 3.66 µM [activator, partial curve]"
2,Cn1c(=O)n(C)c2cc(S(=O)(=O)N3CCN(c4ccccc4)CC3)ccc21,inactive
3,c1ccc2nc(-c3nccs3)ccc2c1,"inconclusive: 18.3 µM [activator, partial curve]"
4,CCn1c(CCNC(=O)c2cccs2)nnc1SCC(=O)NC1CCCCC1,inactive
5,C#CCNC(=O)c1ccc(OCc2ccccc2)cc1Cl,"inconclusive: 29.1 µM [activator, single point]"
6,N#Cc1cc2c(nc1SCc1ccc(Cl)cc1)CCCC2,"inconclusive: 20.6 µM [activator, single point]"
7,O=C(O)c1ccc(COc2ccc(CO)cc2Cl)cc1,"inconclusive: 23.1 µM [activator, single point]"
8,Cc1nn(C(C)C(=O)NC2C(=O)N3C(C(=O)O)=C(CSc4nnnn4C)CSC23)cc1Cl (centres undefined),inactive
9,O=C(Nc1ccc(S(=O)(=O)N2CCCCC2)cc1)C1CC(=O)N(c2ccc(Cl)cc2)C1 (centres undefined),inactive
10,CN(C)c1ccc(Nc2ccc([N+](=O)[O-])cn2)cc1,"inconclusive: 6.51 µM [activator, partial curve]"
11,COc1ccc(Cn2nnc3c(=O)[nH]c(C4CCN(S(=O)(=O)c5ccc(C)cc5)CC4)nc32)cc1,"inconclusive: 9.2 µM [inhibitor, partial curve]"
12,Cc1ccc(C(=O)OCC(=O)c2c[nH]c3ccccc23)cc1,"inconclusive: 13 µM [activator, partial curve]"
13,NC(=O)CC(NC(=O)c1ccccc1)c1ccc(NC2CCCCC2)c([N+](=O)[O-])c1 (centres undefined),inactive
14,O=C(NCc1cn(-c2ccccc2)nc1-c1ccc(F)cc1)c1cccc([N+](=O)[O-])c1,"inconclusive: 29.1 µM [inhibitor, single point]"
15,Cc1ccccc1OCC(=O)NC(=S)Nc1ccc(N2CCCC2)cc1,inactive
16,COc1ccc(-c2cc3nc(C)c(CCC(=O)NCc4ccc(F)cc4)c(C)n3n2)c(OC)c1,active: 25.9 µM
17,Oc1[nH]c2ccccc2c1N=Nc1ccccc1F,"inconclusive: 9.2 µM [activator, partial curve]"
18,CCOC(=O)c1ccc(N2CCN(c3ccccc3F)CC2)c(NC(=O)Nc2cccc(OC)c2)c1,active: 16.4 µM
19,CCOC(=O)C[N+]1(C)CCN(C(C)=O)CC1,inactive
20,CCN(CC(=O)Nc1ccc(NC(C)=O)cc1)C(=O)c1ccc(=O)n(C)n1,inactive
21,Cc1ccc(CCNC(=O)CNC(=S)N(Cc2ccccc2)Cc2cccnc2)cc1,"inconclusive: 29.1 µM [inhibitor, single point]"
22,CN(C)C1=NCCN1CC1CCCC1,inactive
23,COc1ccccc1-c1cc(C(F)(F)F)nc(S(=O)(=O)CCCC(=O)NCc2ccc(F)cc2)n1,"inconclusive: 20.6 µM [activator, partial curve]"
24,CNC(=S)N/N=C/c1c(C)nn(-c2cccc(Cl)c2)c1Cl,"inconclusive: 20.6 µM [activator, single point]"
25,CCC(C)(C)NC(=O)C(c1ccc(OC)cc1)N(C(=O)CCC(=O)Nc1cc(C)on1)C(C)(C)C (centres undefined),inactive

row,Structure (SMILES),Potency
1,Cc1nn(Cc2cccc(C(=O)Nn3cc([N+](=O)[O-])cn3)c2)c(C)c1[N+](=O)[O-],inactive
2,O=C(Nc1ccc(Cl)cc1)ON=C1CCCC1,"inconclusive: 18.4 µM [activator, partial curve]"
3,O=C(Nc1ccc2ccccc2n1)c1ccccc1Br,"inconclusive: 2.06 µM [activator, full curve]"
4,O=C(C1=C[C@H](C2CC2)C[C@H](OCCCCO)O1)N1CCN(Cc2ccc3c(c2)OCO3)CC1,inactive
5,Cc1ccc([N+](=O)[O-])c2cccnc12,inactive
6,Cc1cc(NC(=O)COc2ccc(C)c(C)c2)no1,"inconclusive: 16.4 µM [activator, partial curve, poor fit]"
7,O=C(CN1CCCCCC1)Nc1ccc(Br)cc1Br,"inconclusive: 18.4 µM [activator, single point]"
8,CNC1=C([N+](=O)[O-])CC([N+](=O)[O-])=C(N2CCNCC2)N1C,inactive
9,O=C(Nc1ccc(NC(=O)c2cccs2)cc1)c1ccc(Br)o1,"inconclusive: 20.6 µM [activator, partial curve]"
10,CCn1cnc2sc(C(=O)N3CCN(Cc4ccc5c(c4)OCO5)CC3)c(C)c2c1=O,"inconclusive: 20.6 µM [inhibitor, single point]"
11,CN(C)c1cccc(C(=O)N/N=C/c2ccsc2)c1,"inconclusive: 8.2 µM [activator, partial curve]"
12,CSc1nc2nc3c(cn2n1)C(=O)CC(c1ccccc1)C3 (centres undefined),inactive
13,CC(C)=CCOc1ccc2ccc(=O)oc2c1,"inconclusive: 20.6 µM [activator, single point]"
14,COc1ccc(CC(=O)Nc2ccc(N3CCOCC3)cc2)cc1S(=O)(=O)N1CCOCC1,inactive
15,CC1CCC2(CC1)NC(=O)N(CC(=O)Nc1cccnc1Cl)C2=O (centres undefined),"inconclusive: 11.2 µM [activator, partial curve]"
16,O=C1CCCC(O)=C1N=Nc1ccc(C(=O)O)cc1,inactive
17,COC(=O)c1ccc(Cn2cnc3c(cnn3-c3ccc(C)c(C)c3)c2=O)o1,"inconclusive: 14.6 µM [inhibitor, partial curve, poor fit]"
18,O=C(CSc1ccc(-c2ccc(F)cc2)nn1)N1CCCc2ccccc21,"inconclusive: 29.1 µM [inhibitor, single point]"
19,Cc1c(NC(=O)c2cccc(NC(=O)COc3cccc(Br)c3)c2)c(=O)n(-c2ccccc2)n1C,active: 23.1 µM
20,Fc1ccc(-c2nc3n(n2)Cc2ccccc2-3)cc1,"inconclusive: 2.31 µM [activator, partial curve]"
21,CCCS(=O)(=O)n1nc(-c2ccccc2)cc1N,"inconclusive: 23.1 µM [activator, single point]"
22,S=C(NCCCc1ccccc1)Nc1ccc(Cl)cc1,inactive
23,O=C(CCCOc1ccccc1)NNC(=O)c1ccncc1,inactive
24,Cc1ccc(NC(=O)/C(C#N)=C(\N)C(Cl)(Cl)Cl)nc1,"inconclusive: 18.3 µM [activator, partial curve]"
25,COc1ccc(CNC(=O)CCNS(=O)(=O)c2ccc(C)cc2)cc1,"inconclusive: 20.6 µM [activator, single point]"

row,Structure (SMILES),Potency
1,Cc1ccc(S(=O)(=O)/N=C2/C=C(Sc3ncn[nH]3)C(=O)c3ccccc32)cc1,active: 16.4 µM
2,CCOc1ccccc1-c1cc(-c2n[nH]c(=S)n2CC)c2ccccc2n1,"inconclusive: 23.1 µM [inhibitor, single point]"
3,CC(C)Oc1cc2ccccc2cc1CNC[C@H]1O[C@@H](n2cnc3c(N)ncnc32)[C@H](O)[C@@H]1O,inactive
4,CCCCOn1c(C)c(C(=O)OCC)c2c3no[n+]([O-])c3ccc21,"inconclusive: 3.66 µM [inhibitor, single point]"
5,CCOC(=O)N1CCN(C(=O)CSc2nnc(-c3ccc(Cl)s3)o2)CC1,inactive
6,O=C(CC(=O)Nc1cccc(F)c1)Nc1cccc(F)c1,inactive
7,CC(=O)OCCCNc1cc(SCc2ccco2)c2nonc2c1[N+](=O)[O-],inactive
8,CCCNC(=O)Cn1c(=O)/c(=C\c2ccc(-c3ccc([N+](=O)[O-])cc3)o2)s/c1=C\C(=O)C(C)(C)C,"inconclusive: 6.51 µM [inhibitor, partial curve]"
9,O=S(=O)(NCCC1=CCCCC1)c1cccc(S(=O)(=O)N2CCOCC2)c1,"inconclusive: 14.6 µM [inhibitor, partial curve]"
10,O=C(NC1CC1)C1CCCN(C(=O)Nc2ccc(F)cc2)C1 (centres undefined),inactive
11,Cc1ccc(NC(=O)c2cc(N3C(=O)C=CC3=O)ccc2N2CCOCC2)cc1,inactive
12,COc1ccc2[nH]c(C(=O)Nc3ccccc3Cl)cc2c1,"inconclusive: 29.1 µM [activator, single point]"
13,COC(=O)c1nn(-c2ccc3c(c2)OCO3)cc1O,"inconclusive: 3.55 µM [activator, full curve]"
14,O=C(O)Cc1sc(-c2cccnc2)nc1-c1ccc(Br)cc1,inactive
15,Cc1ccc(C)c(NC(=O)CN(C)C(=O)c2cccc(Oc3ccccc3)c2)c1,"inconclusive: 5.8 µM [inhibitor, single point]"
16,COCCn1c(C)cc(C(=O)COC(=O)c2c(C)nn(Cc3ccccc3)c2C)c1C,"inconclusive: 23.1 µM [inhibitor, partial curve]"
17,CCc1ccc2nc(NC(=O)c3ccc4c(=O)[nH]c(CN5CCOCC5)nc4c3)sc2c1,"inconclusive: 18.4 µM [activator, single point]"
18,Cc1nnc2ccc(-c3cccc(NS(=O)(=O)c4cc(F)ccc4F)c3)nn12,inactive
19,COc1ccc2c(C=Nc3c(C)n(C)n(-c4ccccc4)c3=O)c(O)n(Cc3ccco3)c(=O)c2c1,"inconclusive: 18.4 µM [inhibitor, single point] and inconclusive: 16.4 µM [inhibitor, partial curve]"
20,Cc1cc(N2CCN(c3ccccc3)CC2)nc(N)n1,inactive
21,Nc1cc(=O)[nH]c(SCC(=O)Nc2ccc(S(=O)(=O)N3CCCC3)cc2)n1,inactive
22,Cc1cccc(Nc2ncccc2C(=O)NCc2cccs2)c1C,"inconclusive: 20.6 µM [inhibitor, single point]"
23,C[C@H](NC(=O)c1[nH]cnc1C(=O)Nc1cccc(Cl)c1)c1ccccc1,inactive
24,CC1CCC2(CC1)NC(=O)N(CC(=O)NC1CCCCC1C)C2=O (centres undefined),inactive
